# Earlier results, collected in US20220127232A1, “HISTONE ACETYLTRANSFERASE MODULATORS AND COMPOSITIONS AND USES THEREOF” (The Trustees of Columbia University in the City of New York, priority 2019, published 2022).
# For at least one compound, name, drawing or mass did not settle the structure.
# Details: cited from earlier work
compound,measurement,value
CCOc1ccccc1C(=O)Nc1ccc(Cl)c(C(F)(F)F)c1 [CTB],Membrane permeability,membrane-impermeable
